Values of other authors, collected in patent US20240207282A1, “METHOD OF INCREASING CHAPERONE MEDIATED AUTOPHAGY BY STABILIZING THE INTERACTION OF RETINOIC ACID RECEPTOR-ALPHA AND AN INHIBITOR” (ALBERT EINSTEIN COLLEGE OF MEDICINE, priority 2021, published 2024).
Some of these results come from one statement about several compounds together.

Test system: NIH3T3 cells
Details: % CMA of AR7; previously reported; cited from earlier work

CC(=O)Nc1ccc(C2=Nc3ccc(Cl)cc3OC2)cc1 [CA77]
CMA activation relative to AR7: > 40%
